Two substances from paper PMC10721207 can be followed below.

Protein sequences, listed by entry. Tags and fused reporters are not part of them.
UniProt Q93ZT6: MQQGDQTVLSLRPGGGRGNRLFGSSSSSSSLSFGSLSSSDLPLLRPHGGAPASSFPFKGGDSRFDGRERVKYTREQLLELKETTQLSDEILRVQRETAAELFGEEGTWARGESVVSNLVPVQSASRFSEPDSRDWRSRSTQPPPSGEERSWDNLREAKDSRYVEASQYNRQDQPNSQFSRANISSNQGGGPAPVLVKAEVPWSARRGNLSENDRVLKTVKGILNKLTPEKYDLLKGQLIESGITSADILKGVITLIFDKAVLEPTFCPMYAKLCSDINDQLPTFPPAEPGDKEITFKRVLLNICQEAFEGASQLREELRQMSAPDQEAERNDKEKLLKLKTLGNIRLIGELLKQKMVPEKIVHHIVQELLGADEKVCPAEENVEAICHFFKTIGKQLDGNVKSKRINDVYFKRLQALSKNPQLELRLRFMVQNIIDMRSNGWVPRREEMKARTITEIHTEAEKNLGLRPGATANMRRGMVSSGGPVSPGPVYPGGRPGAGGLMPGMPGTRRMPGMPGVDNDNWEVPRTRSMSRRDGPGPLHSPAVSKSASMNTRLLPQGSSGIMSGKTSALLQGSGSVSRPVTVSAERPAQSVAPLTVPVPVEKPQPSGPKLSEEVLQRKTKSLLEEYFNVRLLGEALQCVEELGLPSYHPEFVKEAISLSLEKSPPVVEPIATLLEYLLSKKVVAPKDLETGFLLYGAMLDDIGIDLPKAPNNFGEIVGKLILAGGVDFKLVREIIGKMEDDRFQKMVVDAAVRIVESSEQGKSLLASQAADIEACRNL
UniProt O82233: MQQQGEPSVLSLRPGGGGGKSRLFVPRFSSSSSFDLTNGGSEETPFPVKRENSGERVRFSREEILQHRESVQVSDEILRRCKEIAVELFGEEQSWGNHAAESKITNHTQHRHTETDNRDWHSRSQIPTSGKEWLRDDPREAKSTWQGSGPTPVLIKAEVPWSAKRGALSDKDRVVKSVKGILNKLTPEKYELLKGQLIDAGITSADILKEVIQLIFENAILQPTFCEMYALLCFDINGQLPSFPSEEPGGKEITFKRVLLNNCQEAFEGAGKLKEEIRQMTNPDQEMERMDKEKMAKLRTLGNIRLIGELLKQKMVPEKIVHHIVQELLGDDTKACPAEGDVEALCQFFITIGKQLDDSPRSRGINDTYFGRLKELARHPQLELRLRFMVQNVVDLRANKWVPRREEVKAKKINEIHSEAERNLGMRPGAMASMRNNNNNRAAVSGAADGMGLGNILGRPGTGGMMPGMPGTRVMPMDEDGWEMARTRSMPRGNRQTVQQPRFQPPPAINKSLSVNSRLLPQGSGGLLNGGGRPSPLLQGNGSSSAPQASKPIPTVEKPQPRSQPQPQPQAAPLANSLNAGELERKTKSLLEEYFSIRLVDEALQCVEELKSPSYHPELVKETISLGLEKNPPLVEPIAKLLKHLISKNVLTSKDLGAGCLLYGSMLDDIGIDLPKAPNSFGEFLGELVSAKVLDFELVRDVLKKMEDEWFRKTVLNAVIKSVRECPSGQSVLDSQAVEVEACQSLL

Results are given in words; binding and its absence hold for the method and conditions named. In cells and extracts the contact can be indirect. A yes stands for co-enrichment or nearness to the bait. Other partners may have been found.

In this assay the target is T1, eIFiso4E (Arabidopsis thaliana (endogenous in Col-0 plants)) (UniProt O04663).
T1 sequence: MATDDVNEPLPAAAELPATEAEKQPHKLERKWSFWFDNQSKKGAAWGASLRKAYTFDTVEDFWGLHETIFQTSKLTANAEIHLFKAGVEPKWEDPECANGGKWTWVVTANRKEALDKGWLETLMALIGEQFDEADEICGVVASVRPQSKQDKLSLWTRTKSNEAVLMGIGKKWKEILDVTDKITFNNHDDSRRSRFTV
The experiment in a line: affinity purification with mass spectrometry; gamma-aminophenyl-m7GTP (C10-spacer)-agarose beads incubated overnight at 4°C with whole-plant lysates (wild-type and eif4e1KO, mock or TuMV-inoculated, 21 dpi); binding buffer 100 mM HEPES pH 7.6, 5% glycerol, 50 mM KCl, 5 mM EDTA, 0.1% Triton X-100, 5 mM DTT; three washes; label-free nanoLC-MS/MS; blank agarose beads as negative control.

Regarding eIFiso4G1 (from UniProt Q93ZT6 1-780), the binding result is given as “binds”.

On to eIFiso4G2 (from UniProt O82233 1-747), for which the binding result is listed as “binds”.
